At least one structure is not confirmed: it was looked up by name or label, or the drawing left a doubt.
System: EC migration in zebrafish embryos
Assay: In vivo EC migration assay (whole mount Phy-V002 staining)
Conditions: 600 μM, ~20 hpf to ~48 hpf

Structure (SMILES): CN(C)[C@@H]1C(O)=C(C(N)=O)C(=O)[C@@]2(O)C(O)=C3C(=O)c4c(O)cccc4[C@@](C)(O)[C@H]3C[C@@H]12 [tetracycline]
- EC migration (stained EC aggregates outside the vasculature): Phy-V002 stained cells aggregating outside the vasculature was observed
- ISV staining by Phy-V002: ISVs were weakly stained and some part of ISVs were missing

Reference: patent US20070134233A1, “Compositions and methods relating to organ-, tissue-, and cell-specific antibodies” (Phylonix Pharmaceuticals, Inc., priority 2004, published 2007)
